{"source": "patent US20130251822A1", "about": "“BIOCIDAL ALDEHYDE COMPOSITION” (priority 2011, published 2013)", "origin": "cited, not measured here", "details": "cited from earlier work", "note": "At least one structure is not confirmed: it was looked up by name or label, or the drawing left a doubt."}
{"compound": "O=Cc1ccccc1C=O", "note": "[OPA, orthophthalaldehyde]", "values": [{"measurement": "sterilization time", "value": "24 to 32", "unit": "h"}]}
